Reference: PubChem BioAssay AID1224830 (NIAID, 2016)

- Aim: 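Genes whose knock-down alters the TNF-alpha reporter response to LPS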 (primary screen)
- System: human THP-1 monocytic leukaemia cells, TNF dual-luciferase reporter clone, PMA-differentiated to macrophage-like cells
- Reagent: siRNA pool against human genes, 50 nM
- Duration: LPS for 4 h, given about 3 days after siRNA transfection
- Treatment: bacterial LPS (TLR4 ligand), 10 ng/ml
- Detection: 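TNF firefly reporter luminescence divided by renilla, normalised to the plate median, then turned into a robust z-score for each replicate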
- Direction: TNF reporter robust z-score: higher = stronger TNF reporter response to LPS
- Hit rule: 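a well is active when its z-score exceeds 2.8 or falls below -1.5; control wells carry no call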
The whole screen tested about 18,000 reagents; below is a part drawn at random. About 2,900 of them (16%) count as active. 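Calls are made per well; low scores hint the gene aids the LPS response, high scores that it dampens it.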 Repeated entries: four replicate wells of each siRNA pool.

| gene symbol | TNF reporter robust z-score | activity call |
| --- | --- | --- |
| AGXT (GeneID 189) | -0.86 | inactive |
| AGXT (GeneID 189) | -0.75 | inactive |
| AGXT (GeneID 189) | -1.1 | inactive |
| AGXT (GeneID 189) | -0.34 | inactive |
| ENPP7 (GeneID 339221) | -0.12 | inactive |
| ENPP7 (GeneID 339221) | 2.42 | inactive |
| ENPP7 (GeneID 339221) | 0.86 | inactive |
| ENPP7 (GeneID 339221) | 0.12 | inactive |
| HAS1 (GeneID 3036) | 0.19 | inactive |
| HAS1 (GeneID 3036) | 0.83 | inactive |
| HAS1 (GeneID 3036) | 1.13 | inactive |
| HAS1 (GeneID 3036) | 1.28 | inactive |
| NEUROD4 (GeneID 58158) | 0.17 | inactive |
| NEUROD4 (GeneID 58158) | 0.16 | inactive |
| NEUROD4 (GeneID 58158) | -0.61 | inactive |
| NEUROD4 (GeneID 58158) | 0.47 | inactive |

4 of these entries in another layout:
gene symbol,TNF reporter robust z-score,activity call
NEUROD4 (GeneID 58158),0.17,inactive
NEUROD4 (GeneID 58158),0.16,inactive
NEUROD4 (GeneID 58158),-0.61,inactive
NEUROD4 (GeneID 58158),0.47,inactive

Further records follow:
| gene symbol | TNF reporter robust z-score | activity call |
| --- | --- | --- |
| ACAN (GeneID 176) | -0.61 | inactive |
| ACAN (GeneID 176) | 0.27 | inactive |
| ACAN (GeneID 176) | 0.16 | inactive |
| ACAN (GeneID 176) | 0.03 | inactive |
| GPANK1 (GeneID 7918) | 0.22 | inactive |
| GPANK1 (GeneID 7918) | 2.23 | inactive |
| GPANK1 (GeneID 7918) | 0.84 | inactive |
| GPANK1 (GeneID 7918) | 0.43 | inactive |
| KANK4 (GeneID 163782) | -0.7 | inactive |
| KANK4 (GeneID 163782) | -0.59 | inactive |
| KANK4 (GeneID 163782) | -0.48 | inactive |
| KANK4 (GeneID 163782) | -1.21 | inactive |
| PPIH (GeneID 10465) | -1.4 | inactive |
| PPIH (GeneID 10465) | -0.77 | inactive |
| PPIH (GeneID 10465) | -0.93 | inactive |
| PPIH (GeneID 10465) | -1.31 | inactive |
| CIB4 (GeneID 130106) | -0.78 | inactive |
| CIB4 (GeneID 130106) | -0.81 | inactive |
| CIB4 (GeneID 130106) | -1.06 | inactive |
| CIB4 (GeneID 130106) | 0.26 | inactive |
| TAF10 (GeneID 6881) | 1.46 | inactive |
| TAF10 (GeneID 6881) | 2.53 | inactive |
| TAF10 (GeneID 6881) | 2.32 | inactive |
| TAF10 (GeneID 6881) | 0.59 | inactive |
| SHLD1 (GeneID 149840) | -0.13 | inactive |
| SHLD1 (GeneID 149840) | -1.05 | inactive |
| SHLD1 (GeneID 149840) | 0.29 | inactive |
| SHLD1 (GeneID 149840) | -0.39 | inactive |
| IGFL3 (GeneID 388555) | -0.96 | inactive |
| IGFL3 (GeneID 388555) | -1.43 | inactive |
| IGFL3 (GeneID 388555) | -1.07 | inactive |
| IGFL3 (GeneID 388555) | -1.44 | inactive |
